The supplement of paper PMC10849652
Some of the results follow.

Amino acid sequences for entries named in this document (tags omitted). A change or cut given only in a name is not applied to a line headed by its entry.
UniProt O95232: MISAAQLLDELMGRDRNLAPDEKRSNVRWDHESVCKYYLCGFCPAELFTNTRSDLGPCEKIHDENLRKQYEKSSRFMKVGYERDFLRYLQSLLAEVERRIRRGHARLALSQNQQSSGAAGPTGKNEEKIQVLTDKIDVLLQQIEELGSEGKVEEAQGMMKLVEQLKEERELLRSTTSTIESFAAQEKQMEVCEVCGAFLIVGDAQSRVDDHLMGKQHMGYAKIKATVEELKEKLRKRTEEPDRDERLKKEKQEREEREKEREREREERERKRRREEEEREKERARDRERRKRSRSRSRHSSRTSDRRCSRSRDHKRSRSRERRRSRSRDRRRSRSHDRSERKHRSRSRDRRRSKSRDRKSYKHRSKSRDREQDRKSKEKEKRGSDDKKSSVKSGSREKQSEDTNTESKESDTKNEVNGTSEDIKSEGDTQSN
UniProt O95372: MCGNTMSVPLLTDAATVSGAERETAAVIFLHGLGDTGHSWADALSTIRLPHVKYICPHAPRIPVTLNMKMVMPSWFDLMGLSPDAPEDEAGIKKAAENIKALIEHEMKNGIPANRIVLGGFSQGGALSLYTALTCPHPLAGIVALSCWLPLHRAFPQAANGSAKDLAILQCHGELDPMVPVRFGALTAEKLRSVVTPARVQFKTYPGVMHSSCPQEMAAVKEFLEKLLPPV
UniProt Q8IV50: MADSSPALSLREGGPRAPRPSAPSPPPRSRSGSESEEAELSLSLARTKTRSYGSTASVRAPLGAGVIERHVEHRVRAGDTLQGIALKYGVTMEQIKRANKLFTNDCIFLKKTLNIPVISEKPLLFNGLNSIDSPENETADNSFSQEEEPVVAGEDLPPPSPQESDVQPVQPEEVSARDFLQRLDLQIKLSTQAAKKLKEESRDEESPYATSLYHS
UniProt Q96GA3: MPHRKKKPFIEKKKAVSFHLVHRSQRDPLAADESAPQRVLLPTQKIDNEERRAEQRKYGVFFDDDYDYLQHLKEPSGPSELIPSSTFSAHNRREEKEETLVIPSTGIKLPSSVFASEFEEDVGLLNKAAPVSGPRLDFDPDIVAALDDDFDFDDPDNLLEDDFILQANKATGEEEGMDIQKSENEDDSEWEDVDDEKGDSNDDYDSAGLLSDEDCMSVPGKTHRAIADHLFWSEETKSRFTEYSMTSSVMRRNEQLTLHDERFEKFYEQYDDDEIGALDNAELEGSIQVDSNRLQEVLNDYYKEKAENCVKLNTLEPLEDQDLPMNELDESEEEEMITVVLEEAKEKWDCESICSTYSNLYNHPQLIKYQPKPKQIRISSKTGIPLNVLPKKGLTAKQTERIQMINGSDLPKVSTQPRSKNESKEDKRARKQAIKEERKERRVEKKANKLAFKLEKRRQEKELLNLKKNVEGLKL
UniProt Q9UI95, whole entry, looked up: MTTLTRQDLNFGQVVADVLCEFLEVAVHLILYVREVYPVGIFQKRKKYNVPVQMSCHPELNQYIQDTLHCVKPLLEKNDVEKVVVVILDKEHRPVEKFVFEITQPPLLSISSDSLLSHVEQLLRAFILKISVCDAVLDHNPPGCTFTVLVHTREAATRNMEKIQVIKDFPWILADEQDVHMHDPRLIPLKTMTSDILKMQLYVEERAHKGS
UniProt Q8IWC1: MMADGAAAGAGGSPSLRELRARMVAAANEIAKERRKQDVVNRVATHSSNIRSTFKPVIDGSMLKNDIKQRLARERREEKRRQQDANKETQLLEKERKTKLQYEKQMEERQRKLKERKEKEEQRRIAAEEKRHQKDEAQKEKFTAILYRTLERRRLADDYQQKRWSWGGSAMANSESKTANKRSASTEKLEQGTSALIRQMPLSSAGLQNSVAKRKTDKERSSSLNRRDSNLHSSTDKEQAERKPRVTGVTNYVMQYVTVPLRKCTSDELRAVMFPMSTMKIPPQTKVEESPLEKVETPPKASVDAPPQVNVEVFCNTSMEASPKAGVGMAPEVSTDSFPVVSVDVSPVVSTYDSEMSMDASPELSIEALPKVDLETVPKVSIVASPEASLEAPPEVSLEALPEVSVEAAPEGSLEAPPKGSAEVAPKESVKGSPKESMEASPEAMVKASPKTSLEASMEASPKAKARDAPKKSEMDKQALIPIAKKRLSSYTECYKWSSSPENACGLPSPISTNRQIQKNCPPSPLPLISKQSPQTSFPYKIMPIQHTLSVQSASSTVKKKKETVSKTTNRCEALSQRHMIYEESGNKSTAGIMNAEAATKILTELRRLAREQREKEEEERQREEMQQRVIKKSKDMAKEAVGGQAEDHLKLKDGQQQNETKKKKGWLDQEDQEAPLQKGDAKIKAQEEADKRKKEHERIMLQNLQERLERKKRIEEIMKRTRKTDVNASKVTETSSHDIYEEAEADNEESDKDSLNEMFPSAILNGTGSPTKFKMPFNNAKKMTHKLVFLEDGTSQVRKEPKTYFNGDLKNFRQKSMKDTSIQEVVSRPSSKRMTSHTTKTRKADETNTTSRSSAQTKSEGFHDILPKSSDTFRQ
UniProt Q9Y2U5: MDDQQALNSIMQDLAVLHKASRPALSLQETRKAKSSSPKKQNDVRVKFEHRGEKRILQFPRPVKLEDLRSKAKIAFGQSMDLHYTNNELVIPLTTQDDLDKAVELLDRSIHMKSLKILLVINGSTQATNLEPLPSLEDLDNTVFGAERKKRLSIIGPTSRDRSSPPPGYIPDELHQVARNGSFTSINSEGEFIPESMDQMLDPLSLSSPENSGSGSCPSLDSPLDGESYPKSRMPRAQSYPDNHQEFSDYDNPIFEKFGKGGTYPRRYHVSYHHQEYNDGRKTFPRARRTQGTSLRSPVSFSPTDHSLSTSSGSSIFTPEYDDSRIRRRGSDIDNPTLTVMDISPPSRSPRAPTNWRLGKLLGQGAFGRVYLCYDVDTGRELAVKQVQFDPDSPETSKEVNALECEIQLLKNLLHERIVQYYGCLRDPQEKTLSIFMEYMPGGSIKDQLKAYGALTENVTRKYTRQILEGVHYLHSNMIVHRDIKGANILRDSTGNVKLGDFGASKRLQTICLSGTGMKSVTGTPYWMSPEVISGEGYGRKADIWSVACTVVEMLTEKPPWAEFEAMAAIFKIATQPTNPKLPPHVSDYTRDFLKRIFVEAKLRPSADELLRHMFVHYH
UniProt P53778: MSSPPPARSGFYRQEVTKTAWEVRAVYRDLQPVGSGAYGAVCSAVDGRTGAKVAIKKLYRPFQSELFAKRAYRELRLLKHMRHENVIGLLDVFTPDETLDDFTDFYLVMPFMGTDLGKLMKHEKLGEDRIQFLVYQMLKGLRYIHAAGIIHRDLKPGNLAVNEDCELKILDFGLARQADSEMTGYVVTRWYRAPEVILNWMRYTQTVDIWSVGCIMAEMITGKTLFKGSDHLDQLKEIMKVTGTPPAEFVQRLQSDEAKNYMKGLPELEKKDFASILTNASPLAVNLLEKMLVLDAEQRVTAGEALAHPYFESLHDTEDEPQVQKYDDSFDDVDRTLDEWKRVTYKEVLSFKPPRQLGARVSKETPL
UniProt Q8WWC4: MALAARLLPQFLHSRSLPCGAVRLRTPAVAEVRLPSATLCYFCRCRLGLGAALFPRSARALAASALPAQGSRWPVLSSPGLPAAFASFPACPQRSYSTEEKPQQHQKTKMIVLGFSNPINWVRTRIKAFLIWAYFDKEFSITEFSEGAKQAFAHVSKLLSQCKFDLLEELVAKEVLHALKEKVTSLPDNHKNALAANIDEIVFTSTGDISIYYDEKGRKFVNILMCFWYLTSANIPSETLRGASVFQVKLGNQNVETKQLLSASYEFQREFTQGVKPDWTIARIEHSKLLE
UniProt P48449: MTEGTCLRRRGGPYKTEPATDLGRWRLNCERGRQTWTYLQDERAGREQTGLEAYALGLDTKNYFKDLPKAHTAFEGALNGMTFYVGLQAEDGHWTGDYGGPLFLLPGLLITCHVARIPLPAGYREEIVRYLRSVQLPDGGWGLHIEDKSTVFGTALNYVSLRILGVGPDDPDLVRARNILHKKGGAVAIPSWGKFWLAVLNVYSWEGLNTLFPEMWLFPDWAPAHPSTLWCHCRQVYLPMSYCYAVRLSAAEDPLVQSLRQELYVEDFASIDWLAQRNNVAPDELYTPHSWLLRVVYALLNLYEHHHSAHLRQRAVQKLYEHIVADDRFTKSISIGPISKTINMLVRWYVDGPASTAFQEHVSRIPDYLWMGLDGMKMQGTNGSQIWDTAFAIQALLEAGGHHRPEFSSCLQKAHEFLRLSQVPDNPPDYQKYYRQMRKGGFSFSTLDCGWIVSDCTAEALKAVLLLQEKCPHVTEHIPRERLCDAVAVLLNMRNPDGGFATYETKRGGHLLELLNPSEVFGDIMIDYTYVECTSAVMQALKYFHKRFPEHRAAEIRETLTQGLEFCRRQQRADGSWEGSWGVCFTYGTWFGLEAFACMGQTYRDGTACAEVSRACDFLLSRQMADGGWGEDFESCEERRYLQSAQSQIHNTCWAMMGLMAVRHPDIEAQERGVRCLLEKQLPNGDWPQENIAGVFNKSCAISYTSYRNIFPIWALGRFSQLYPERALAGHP
UniProt Q9H089: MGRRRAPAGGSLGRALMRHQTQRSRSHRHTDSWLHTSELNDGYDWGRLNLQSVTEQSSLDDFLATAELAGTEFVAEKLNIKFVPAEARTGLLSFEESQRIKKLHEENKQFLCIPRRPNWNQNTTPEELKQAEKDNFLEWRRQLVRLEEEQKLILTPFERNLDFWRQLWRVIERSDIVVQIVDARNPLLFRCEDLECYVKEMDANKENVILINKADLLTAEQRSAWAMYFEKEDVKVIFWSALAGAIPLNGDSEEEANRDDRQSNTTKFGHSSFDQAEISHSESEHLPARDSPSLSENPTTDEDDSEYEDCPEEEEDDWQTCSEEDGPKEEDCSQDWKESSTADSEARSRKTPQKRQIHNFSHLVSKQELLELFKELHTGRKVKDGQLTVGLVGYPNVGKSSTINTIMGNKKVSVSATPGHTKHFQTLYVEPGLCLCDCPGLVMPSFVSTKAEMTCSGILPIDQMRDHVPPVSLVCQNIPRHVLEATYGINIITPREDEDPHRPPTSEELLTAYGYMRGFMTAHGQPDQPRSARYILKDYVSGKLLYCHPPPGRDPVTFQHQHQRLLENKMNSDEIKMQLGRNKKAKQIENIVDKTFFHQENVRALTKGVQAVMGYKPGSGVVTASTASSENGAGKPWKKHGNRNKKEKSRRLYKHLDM
UniProt P36941: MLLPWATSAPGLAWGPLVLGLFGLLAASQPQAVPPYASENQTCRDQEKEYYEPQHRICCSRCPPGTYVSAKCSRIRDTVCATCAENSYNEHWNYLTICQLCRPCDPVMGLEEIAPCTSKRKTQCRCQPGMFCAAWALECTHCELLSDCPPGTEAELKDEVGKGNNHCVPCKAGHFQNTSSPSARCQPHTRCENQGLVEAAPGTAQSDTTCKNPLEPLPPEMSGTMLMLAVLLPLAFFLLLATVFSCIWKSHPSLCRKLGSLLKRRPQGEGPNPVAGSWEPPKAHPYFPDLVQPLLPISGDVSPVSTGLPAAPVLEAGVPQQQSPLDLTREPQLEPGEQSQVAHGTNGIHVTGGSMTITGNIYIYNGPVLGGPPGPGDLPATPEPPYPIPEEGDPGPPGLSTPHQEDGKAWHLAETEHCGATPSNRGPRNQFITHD
UniProt Q8WVR3: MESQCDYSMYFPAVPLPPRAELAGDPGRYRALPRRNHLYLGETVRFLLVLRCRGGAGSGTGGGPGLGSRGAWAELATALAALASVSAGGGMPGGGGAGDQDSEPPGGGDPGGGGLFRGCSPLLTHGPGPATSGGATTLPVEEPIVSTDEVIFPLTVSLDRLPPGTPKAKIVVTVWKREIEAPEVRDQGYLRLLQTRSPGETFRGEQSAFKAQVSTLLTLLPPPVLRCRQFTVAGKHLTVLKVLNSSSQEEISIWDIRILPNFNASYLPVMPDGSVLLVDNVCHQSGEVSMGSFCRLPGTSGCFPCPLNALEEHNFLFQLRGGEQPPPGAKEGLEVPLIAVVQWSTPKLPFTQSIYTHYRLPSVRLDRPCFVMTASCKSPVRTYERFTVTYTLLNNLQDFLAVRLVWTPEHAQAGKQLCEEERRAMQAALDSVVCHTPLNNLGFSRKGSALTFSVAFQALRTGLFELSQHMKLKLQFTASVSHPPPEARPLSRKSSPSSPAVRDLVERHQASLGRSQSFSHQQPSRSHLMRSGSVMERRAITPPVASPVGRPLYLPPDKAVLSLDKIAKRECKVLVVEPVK
UniProt Q8IW41: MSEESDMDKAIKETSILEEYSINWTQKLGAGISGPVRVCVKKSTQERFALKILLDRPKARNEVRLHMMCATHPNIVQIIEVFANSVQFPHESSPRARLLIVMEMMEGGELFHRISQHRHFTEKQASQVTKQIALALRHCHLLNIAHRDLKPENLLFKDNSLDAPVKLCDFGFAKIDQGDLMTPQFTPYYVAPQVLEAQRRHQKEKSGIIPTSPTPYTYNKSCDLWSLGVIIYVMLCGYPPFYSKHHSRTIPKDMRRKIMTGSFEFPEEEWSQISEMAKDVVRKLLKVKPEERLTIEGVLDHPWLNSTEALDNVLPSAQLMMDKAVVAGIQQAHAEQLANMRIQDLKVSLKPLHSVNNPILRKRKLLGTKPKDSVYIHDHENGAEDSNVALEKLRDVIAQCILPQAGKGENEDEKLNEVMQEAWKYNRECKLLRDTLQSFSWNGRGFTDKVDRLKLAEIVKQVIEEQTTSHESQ

Assays:
Test in all cases: log2 fold change, soluble protein after heating vs DMSO (PISA); higher = thermal stabilisation; K562 cells, 10 uM, 30 min; active = over 0.2 and 3.5 SD of the protein, either way, in both replicates (recomputed)
[1] = compound: CC[C@@H]1C(=O)N(C)c2cnc(Nc3ccc(C(=O)NC4CCN(C)CC4)cc3OC)nc2N1C1CCCC1
Method in brief: (§1)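 Values are thermal stability changes relative to control samples and are taken from duplicates. They are stated as log2 fold changes. Before quantification by TMTpro 16plex LC-MS/MS with equalised channel sums, K562 cells at 2×10^6 cells/mL were treated with 10 μM compound for 30 min, heated in aliquots for 3 min across 48°C-58°C, pooled, extracted in PBS with 0.5% NP-40 at 4°C, and centrifuged at 21,000xg for 90 min to give the soluble supernatant.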

[2] = compound: CC[C@@H]1C(=O)N(C)c2cnc(Nc3ccc(C(=O)N[C@H]4CC[C@H](N5CCN(CC6CC6)CC5)CC4)cc3OC)nc2N1C(C)C [volasertib]
Method in brief: as §1

[3] = compound: CC[C@H](C)N1C=C(C2=C(C=C(C=C21)C3=CN=C(C=C3)N4CCNCC4)C(=O)NCC5=C(C=C(NC5=O)C)C)C
Method in brief: as §1

[4] = compound: CC[C@H](C)[C@@H](C(=O)N[C@@H]([C@@H](C)O)C(=O)N[C@@H](CC(C)C)C(=O)[C@]1(CO1)C)NC(=O)[C@H]([C@@H](C)CC)N(C)C(=O)C [epoxomicin]
Method in brief: as §1

[5] = compound: CCn1cc(-c2ccnc3[nH]c(-c4cccc(CN(C)C)c4)cc23)c(-c2ccc(NC(=O)N(C)C)cc2)n1
Method in brief: as §1

[6] = compound: CN(C)CC(=O)Nc1ccc2[nH]c(=O)c3ccccc3c2c1
Method in brief: as §1

[7] = compound: CN1C2=C(C3=C1C(=O)N(N=C3)CC4=CC(=CC=C4)N)SC(=C2)S(=O)C
Method in brief: as §1

[8] = compound: CN1CCC(CNc2ccc3ncc(-c4cccc(OC(F)(F)F)c4)n3n2)CC1
Method in brief: as §1

[9] = compound: CCn1c(C(=O)N(C2CC2)C2CC2)cc2c3c(ncn3C)c(Nc3cc(C)n(C)n3)nc21
Method in brief: as §1

[10] = compound: CN(CCOC1=CC=C(C=C1)C[C@H]2C(=O)NC(=O)S2)C3=CC=CC=N3 (racemic) [rosiglitazone]
Method in brief: as §1

Target	log2 fold change [1]	log2 fold change [2]	log2 fold change [3]	log2 fold change [4]	log2 fold change [5]	log2 fold change [6]	log2 fold change [7]	log2 fold change [8]	log2 fold change [9]	log2 fold change [10]
LUC7L3 (UniProt O95232)	inactive: -0.057	inactive: -0.185	inactive: 0.027	inactive: 0.005	inactive: 0	inactive: -0.031	inactive: -0.009	inactive: -0.074		
MAPKAPK2 (UniProt P49137)	inactive: -0.058	inactive: -0.059	inactive: 0.026	inactive: 0.049	inactive: -0.002	inactive: 0.032	inactive: -0.007	inactive: -0.018		
LYPLA2 (UniProt O95372)	inactive: 0.049	inactive: -0.033	inactive: 0.018	active: 0.521	inactive: -0.05	inactive: 0.108	inactive: -0.053	inactive: 0.098		
LSM14A isoform 2 (UniProt Q8ND56)	inactive: 0.031	inactive: -0.166	inactive: 0.004	inactive: -0.006	inactive: 0.027	inactive: -0.006	inactive: -0.025	inactive: -0.04	inactive: -0.083	inactive: 0.002
MADD isoform 2 (UniProt Q8WXG6)	inactive: -0.08	inactive: -0.28	inactive: 0.005	inactive: -0.087			inactive: 0.097		inactive: -0.026	inactive: -0.009
MAP4 (UniProt P27816)	inactive: 0.011	inactive: 0.049	inactive: -0.041	inactive: -0.003	inactive: -0.002	inactive: -0.03	inactive: -0.004	inactive: 0.037		
LYSMD2 (UniProt Q8IV50)	inactive: 0.062	inactive: -0.02	inactive: 0.026	inactive: -0.053	inactive: 0.11	inactive: 0.008	inactive: -0.087	inactive: -0.008	inactive: -0.015	inactive: 0.038
MAP3K20 (UniProt Q9NYL2)	inactive: 0.038	inactive: -0.026	inactive: 0.08	inactive: 0.008	inactive: -0.016	inactive: -0.02	inactive: 0.126	inactive: -0.12		
MAPK9 (UniProt P45984)	inactive: -0.055	inactive: -0.087	inactive: 0.006	inactive: -0.005	inactive: 0.03	inactive: 0	inactive: -0.038	inactive: -0.071		
LTV1 (UniProt Q96GA3)	inactive: 0.09	inactive: 0.004	inactive: 0.06	inactive: -0.109	inactive: 0.023	inactive: -0.049	inactive: 0.189	inactive: 0.104		
MARK2 (UniProt E9PC69)	inactive: 0.044	inactive: -0.469	inactive: 0.086	inactive: 0.023		inactive: -0.028	inactive: 0.187			
MAD2L2 (UniProt Q9UI95)	inactive: 0.102			inactive: 0.14	inactive: 0.117		inactive: -0.071	inactive: -0.072	inactive: -0.035	
MAP7D3 (UniProt Q8IWC1)	inactive: 0.047		inactive: 0.003	inactive: -0.288	inactive: 0.03			inactive: 0.06	inactive: -0.007	inactive: -0.102
MAPK8 isoform 3 (UniProt P45983)	inactive: -0.112	inactive: -0.249	inactive: 0.003	inactive: 0.117	inactive: 0.006	inactive: 0.004	inactive: 0.013	inactive: -0.054		
MAP3K3 isoform 2 (UniProt Q99759)	inactive: -0.063		inactive: 0.02	inactive: 0.043	inactive: 0.164	inactive: -0.025	inactive: 0.05	inactive: -0.378	inactive: 0.102	
MAP2K2 (UniProt P36507)	inactive: -0.12	inactive: 0.084	inactive: 0.077	inactive: 0.044	inactive: -0.06	inactive: 0.022	inactive: -0.056	inactive: -0.1		
LYN (UniProt P07948)	inactive: -0.016	inactive: -0.023	inactive: 0.033	inactive: 0.039	inactive: -0.095	inactive: -0.024	inactive: 0.144	inactive: -0.03		
MAP1LC3B2 (UniProt A6NCE7)	inactive: -0.074	inactive: -0.072	inactive: 0.05	inactive: 0	inactive: 0.004	inactive: 0	inactive: -0.015	inactive: 0.108		
MAP3K2 (UniProt Q9Y2U5)	inactive: 0.041	inactive: 0.015		inactive: 0.01	inactive: -0.017	inactive: -0.111	inactive: 0.109	inactive: -0.126	inactive: -0.232	inactive: 0.074
MAPK14 (UniProt Q16539)	inactive: -0.065	inactive: -0.516	inactive: -0.067		inactive: 0.03	inactive: 0.052	inactive: -0.231	inactive: -0.03		
MAP4K4 isoform 6 (UniProt O95819)	inactive: -0.241		inactive: 0.109			inactive: -0.083	inactive: 0.261			
MAP2K3 isoform 3 (UniProt P46734)	inactive: -0.041	inactive: -0.17	inactive: 0.09	inactive: -0.035	inactive: 0.039	inactive: 0.038	inactive: -0.054	inactive: -0.121		
MAPKAPK3 (UniProt Q16644)	inactive: -0.084	inactive: 0.036	inactive: 0.003	inactive: 0.064	inactive: 0.016	inactive: -0.015	inactive: -0.14	inactive: -0.049		
MAPK12 (UniProt P53778)	inactive: -0.097	inactive: 0.036	inactive: -0.128	inactive: 0.089	inactive: -0.051	inactive: 0.009	inactive: -0.097	inactive: -0.077		
MAIP1 (UniProt Q8WWC4)	inactive: -0.086	inactive: -0.098	inactive: -0.023	inactive: -0.068	inactive: -0.015	inactive: 0.026	inactive: -0.052	active: -0.396		
LSS (UniProt P48449)	inactive: 0.024	active: 0.719	inactive: 0.074	inactive: 0.129	inactive: -0.024	inactive: 0.055	inactive: -0.025	inactive: 0.384		
LSG1 (UniProt Q9H089)	inactive: -0.102	inactive: -0.085		inactive: -0.207		inactive: 0.044	inactive: 0.287		inactive: -0.277	
LTBR (UniProt P36941)	inactive: 0.076	inactive: 0.105		inactive: 0.028	inactive: 0.002	inactive: -0.111	inactive: 0.02	inactive: 0.176	inactive: -0.189	inactive: -0.151
MAP11 (UniProt Q8WVR3)	inactive: 0.033		inactive: 0.011	inactive: 0.038	inactive: 0.083	inactive: 0.17		inactive: -0.025	inactive: 0.399	inactive: 0.034
MAPKAPK5 (UniProt Q8IW41)	inactive: 0.009	inactive: -0.007	inactive: -0.023	inactive: 0.045	inactive: -0.132	inactive: -0.123	inactive: -0.112	inactive: -0.033		

Copied from above (two entries):
Target	log2 fold change [1]	log2 fold change [2]	log2 fold change [3]	log2 fold change [4]	log2 fold change [5]	log2 fold change [6]	log2 fold change [7]	log2 fold change [8]	log2 fold change [9]	log2 fold change [10]
MAP3K2 (UniProt Q9Y2U5)	inactive: 0.041	inactive: 0.015		inactive: 0.01	inactive: -0.017	inactive: -0.111	inactive: 0.109	inactive: -0.126	inactive: -0.232	inactive: 0.074
MAPK14 (UniProt Q16539)	inactive: -0.065	inactive: -0.516	inactive: -0.067		inactive: 0.03	inactive: 0.052	inactive: -0.231	inactive: -0.03		
